Laboratory results published in the supplement of paper PMC3334620.
Whole data set: some 33,000 sequences, median “E-score (-0.5 to 0.5)” near -0.0059, cut for the highest 2% near 0.26. This is one part of the list.

molecular target: T1, Cin5 (UniProt P40917); assay: PBM E-score (8-mer binding enrichment) (E-score (-0.5 to 0.5)); higher = stronger / more preferred TF binding; conditions: protein concentration: 100 nM; construct: GST-full length
T1 sequence: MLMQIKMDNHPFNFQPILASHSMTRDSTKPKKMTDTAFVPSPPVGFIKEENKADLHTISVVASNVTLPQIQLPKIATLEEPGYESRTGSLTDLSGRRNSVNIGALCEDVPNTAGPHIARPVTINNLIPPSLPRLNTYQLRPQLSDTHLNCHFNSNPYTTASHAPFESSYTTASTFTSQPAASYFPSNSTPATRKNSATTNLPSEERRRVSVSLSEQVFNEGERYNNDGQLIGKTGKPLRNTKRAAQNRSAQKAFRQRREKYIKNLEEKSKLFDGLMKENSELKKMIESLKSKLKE
In short: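 E-scores (a modified Wilcoxon-Mann-Whitney statistic) were assigned by the Universal PBM Analysis Suite to every ungapped eight-base word pooled with its reverse complement. The input came from universal all-10-mer Agilent arrays made double-stranded by primer extension and probed with GST-tagged yeast transcription factors at about 100-200 nM. Fluorescent anti-GST detected bound protein, and masliner normalised the scans.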

Sequence	PBM E-score
CGGCGTAC	-0.174
ACTACTCG	0.209
GATAGCGC	0.00176
AGATGGCC	-0.16
CCGAAGGC	-0.304
ACAAAAAT	0.247
AACACCAT	0.0774
ATCTTAGC	-0.0416
AGAAGTGA	-0.0317
TCGACAGA	0.0217
CGCGACCC	-0.102
CAATTCTG	0.0455
TGCTAAAA	-0.0719
GCTGAATA	0.223
AATGGTCA	0.176
AAAAAAGC	-0.04
CCGATGGC	-0.0788
CACTATCC	0.00958
GATCGGCA	-0.0799
GATTGCTA	-0.0568
AGCCCTTG	-0.196
TAGATCGA	0.0888
GGGAGAAC	-0.184
TCAGTTCA	0.055
ATTGTTTG	0.168

Sequence	PBM E-score
AACCCTGT	-0.0871
GTGTGAAC	-0.0377
TGGGCACA	-0.0569
ATGGGCAA	0.0649
AAGGTAAC	0.189
ACTTGCAA	0.0582
AGGATACT	-0.135
ACGCATTA	0.0564
AGAATAGA	0.0383
ACCAGCAT	0.0225
ATTTAGGG	0.0134
ACATCAGG	0.0572
CCGTCACC	-0.234
AGAGGGCT	-0.241
ATGCCATA	0.16
AACGTTCT	0.0939
ACGGAAGT	0.179
CGGATGTC	0.0822
ACCAAGGT	-0.0848
TCTGTAAA	-0.0149
ACCATCCT	-0.0592
AAATATCG	0.164
CGCTGGGA	-0.244
AGTGTTGG	0.147
CGAGTACG	-0.119

Sequence	PBM E-score
CAACTACG	0.032
CGTTGTTA	0.091
GAGGCGCC	-0.119
TAGGAAGA	-0.197
CACCCCAC	0.171
CGCACGCA	-0.0549
GTATTTCA	0.0836
CAGGGACA	-0.0907
AGCTCGGA	-0.0324
ACGGATTC	0.0755
TATGCGGA	0.148
AAGTCTCT	-0.249
AGACGGGC	-0.155
ATCTACAG	0.132
CAATGTGA	0.117
GAGCTCAC	-0.0667
GCTGGCCA	-0.135
CCTACTTA	0.0194
ACAGACAA	0.28
CAGACACA	-0.0486
AGTTGCTA	0.174
CACGGGCG	-0.108
CTAGGGTC	-0.224
AGGCACAG	-0.196
ATCGGTAA	0.107

Sequence	PBM E-score
AGCCTTGA	-0.0832
CGAATAAA	0.0982
CGAGGCAA	0.0711
TCACTCGA	-0.04
AACAGCGT	0.0292
CGTGACGC	-0.0607
CAAACCCC	-0.059
AATCAGCT	0.0682
ACAAAGAA	0.115
GAATAAGC	0.121
GATAATGC	0.0879
GATCGGAA	0.0632
ATTAACTG	0.237
GTCTCCTA	-0.225
TGCTAGAA	-0.089
CTGAGGCC	-0.0445
AAGCCGTA	0.0259
GTGGGTCA	-0.0526
AAGGCAGT	0.0209
AAGGCATA	-0.0243
ACGCATGG	-0.2
GATATCGC	0.126
ACGTACGG	0.05
GAATAGAA	0.173
AGACCGAA	0.0258

Look-ups from above:
Entry of AACAGCGT under PBM E-score: 0.0292
Entry of GTCTCCTA under PBM E-score: -0.225
Entry of AAGGCATA under PBM E-score: -0.0243
Entry of CGAGGCAA under PBM E-score: 0.0711
Entry of GATAATGC under PBM E-score: 0.0879
Entry of GAATAGAA under PBM E-score: 0.173

More entries follow:

Sequence	PBM E-score
CTGCTAAG	-0.298
GCACACGA	-0.221
CGAGGGCA	-0.0897
ATCGCTAA	0.0407
ACACAACG	0.0427
AACTCGCC	0.141
ACTAGACC	0.16
ATCGGTGC	-0.0174
AATCATTC	0.188
ACTTACCG	0.19
GGAGGCAC	-0.261
CACCTGTA	-0.149
ATACAAAG	0.127
GACAGAGC	-0.119
GCTACCCA	-0.155
AACTGGGA	-0.0428
AGAGGGTC	-0.334
AAAAAGGG	-0.0374
AGGGAAAA	-0.00546
CTGCATTC	0.127
CAACACAC	0.106
AAGTCGTC	-0.133
TACCCCTA	0.141
TAGATCTA	0.117
ATATCAAA	0.166

Sequence	PBM E-score
AGCCGTTC	-0.271
GGTCGGAC	-0.21
CGCAAGCG	-0.101
AGTGTAGA	0.0156
CAGGCCTG	-0.128
CGCAGGGA	-0.129
ACTCGATG	0.1
CCTCAGGA	-0.00304
ACTGGGTG	-0.04
AAAACCCA	0.248
GCTCGCAA	0.0666
ACTCTTTC	-0.0901
CCTTCTGA	-0.0192
ATCTAGAA	0.102
ATGATAAA	0.188
CATCTAGG	-0.0172
CTTCGTAA	0.0958
CCTAATAA	0.0783
ATATACGG	0.0225
CCCCAAAA	-0.0403
ATAAGCCC	-0.0352
GGATACGA	-0.0639
GCACGAAC	0.136
GGAATCAC	0.113
CCATCTAA	-0.0666

Sequence	PBM E-score
AGAGCACG	-0.0527
AACACTAA	0.028
GGAAATGA	0.226
GATAAGGA	-0.0531
AACAACTG	0.135
AATCACGT	0.17
CGCTAGCA	-0.187
ATGTCGGG	-0.0236
CAGATCGA	0.0169
AGGCCGAG	-0.0405
TGGCTGAA	-0.0107
CTCCAAAG	-0.0924
AAGATGCC	0.0779
ACTTTAGC	-0.0814
AGGGGAAC	-0.212
CCTACTCG	-0.0287
CATAAACC	0.161
AGGTATGG	-0.114
GATACATC	0.134
ATGTCTAC	-0.234
AAAAAACT	-0.189
ATGTTGGA	0.184
GCTTTCCA	-0.0168
GGTTTTCA	0.0843
CATTTCCC	0.189

Sequence	PBM E-score
ATAATGCC	-0.0311
TACTCTGA	0.0471
CGTCCTAA	-0.103
GCGTGCAC	-0.115
CATAACGG	-0.021
CGCGTTAC	0.127
GACCTAGA	-0.0788
GTTAAAAC	-0.0559
TTCTAAAA	-0.174
AAGTAGCA	0.038
CCTGTCAG	-0.0565
ATGGAACC	-0.0476
ACTGCGCC	-0.195
ACGGGTCT	-0.292
AGGATTTC	0.122
AAAATACA	0.103
CGAATAGC	-0.00363
CAGTCACC	-0.208
GAAGGGCA	-0.205
ACCTTGTG	-0.0491
ATAACAAA	0.226
ACAACTTA	0.184
AGACAGGG	-0.263
GTCCGTTA	0.12
AGCCTGTG	-0.126

Sequence	PBM E-score
ATCTCTAC	0.108
CACTGCCG	-0.104
GACTTTAA	-0.00088
GTCATGCA	0.00703
CCCCCACG	-0.434
ACATCGGA	-0.037
CTTCCTGC	-0.233
CAGTGCTA	-0.0638
AAATTAAG	0.0939
CCATGCGG	-0.108
CTATAACC	-0.144
AGTTATTA	0.199
AGGACTTG	-0.201
GCGAAGGA	-0.156
GTATAGGA	-0.0959
GCCCCAGC	-0.0437
AAGTTCCC	-0.0726
CCCATCAA	0.0995
TGCTGCCA	-0.0641

Some of the entries so far, bar-delimited.
Sequence | PBM E-score
AAATTAAG | 0.0939
CCATGCGG | -0.108
CTATAACC | -0.144
AGTTATTA | 0.199

Shown comma-delimited: entries from further up.
Sequence,PBM E-score
CAGTGCTA,-0.0638
AAATTAAG,0.0939
